Measurements as given in article doi:10.1101/2021.08.04.455086.
Like-named read-outs stand apart in the source and are kept apart here. No constants are given. Whether binding was seen depends on the method and setting. Binding seen in cells or lysates may run through a third protein. Some binding calls cover weakened binding; strength is not graded here.

Sequences of proteins named here, by UniProt entry; tags and fusion partners are left off.
UniProt Q9R1A8: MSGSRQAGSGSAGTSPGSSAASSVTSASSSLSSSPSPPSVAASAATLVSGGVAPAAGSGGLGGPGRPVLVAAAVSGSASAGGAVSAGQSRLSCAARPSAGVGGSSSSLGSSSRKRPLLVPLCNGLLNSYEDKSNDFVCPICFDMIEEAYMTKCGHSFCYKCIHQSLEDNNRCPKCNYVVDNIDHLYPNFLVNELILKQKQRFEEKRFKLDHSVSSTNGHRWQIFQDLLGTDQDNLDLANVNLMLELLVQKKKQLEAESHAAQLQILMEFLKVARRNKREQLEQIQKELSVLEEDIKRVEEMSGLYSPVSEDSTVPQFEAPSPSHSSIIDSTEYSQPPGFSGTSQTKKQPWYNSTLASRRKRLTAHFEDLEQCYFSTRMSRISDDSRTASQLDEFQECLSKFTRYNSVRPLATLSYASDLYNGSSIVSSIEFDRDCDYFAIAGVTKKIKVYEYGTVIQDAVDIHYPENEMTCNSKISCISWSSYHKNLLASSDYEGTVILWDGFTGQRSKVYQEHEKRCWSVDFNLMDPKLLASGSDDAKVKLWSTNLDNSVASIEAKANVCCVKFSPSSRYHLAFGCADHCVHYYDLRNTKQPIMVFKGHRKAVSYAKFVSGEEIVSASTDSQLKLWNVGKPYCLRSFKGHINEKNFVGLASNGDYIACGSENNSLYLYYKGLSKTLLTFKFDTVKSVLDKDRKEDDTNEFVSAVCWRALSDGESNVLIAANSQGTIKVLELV

Experiments:
[1] = molecular target: T1, IRF9 (Interferon Regulatory Factor 9) (mouse (endogenous in BALB/c peritoneal macrophages and lung)) (UniProt Q61179); assay: co-IP
T1 sequence: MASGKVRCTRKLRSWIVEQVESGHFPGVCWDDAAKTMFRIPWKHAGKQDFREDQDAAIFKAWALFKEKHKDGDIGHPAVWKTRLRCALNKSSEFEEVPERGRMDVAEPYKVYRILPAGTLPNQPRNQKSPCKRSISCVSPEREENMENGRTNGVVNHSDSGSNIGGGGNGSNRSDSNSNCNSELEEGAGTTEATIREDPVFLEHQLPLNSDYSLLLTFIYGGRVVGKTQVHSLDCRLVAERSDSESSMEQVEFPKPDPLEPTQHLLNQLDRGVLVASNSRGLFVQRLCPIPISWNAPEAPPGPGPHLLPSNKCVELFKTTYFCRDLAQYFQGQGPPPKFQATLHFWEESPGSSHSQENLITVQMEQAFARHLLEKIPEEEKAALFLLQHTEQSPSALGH

[2] = molecular target: T1, IRF9 (Interferon Regulatory Factor 9) (mouse (endogenous in BALB/c peritoneal macrophages and lung)); assay: co-IP; remark: listed apart in the source

“COP1 (Constitutive photomorphogenesis protein 1) (from UniProt Q9R1A8 1-733) (enzyme)” was tested, and the binding [1] was “binds” and the binding [2] was “binds”.
